Reference: PMC6484772, “S100A3 a partner protein regulating the stability/activity of RARα and PML-RARα in cellular models of breast/lung cancer and acute myeloid leukemia” (Oncogene, 2018)
These are yes or no findings as the source states them, for the method shown. For some assays here: Binding seen in cells or lysates may run through a third protein. For some assays here: A result given as binding can be weak or reduced; the word gives no strength. For some assays here: Sequences can lack the tags named with a protein.

By UniProt entry, the sequences of proteins in these tests, tags left out. Where a name states a change or a piece, a line headed by the entry shows the natural chain unless it says otherwise.
UniProt P10276: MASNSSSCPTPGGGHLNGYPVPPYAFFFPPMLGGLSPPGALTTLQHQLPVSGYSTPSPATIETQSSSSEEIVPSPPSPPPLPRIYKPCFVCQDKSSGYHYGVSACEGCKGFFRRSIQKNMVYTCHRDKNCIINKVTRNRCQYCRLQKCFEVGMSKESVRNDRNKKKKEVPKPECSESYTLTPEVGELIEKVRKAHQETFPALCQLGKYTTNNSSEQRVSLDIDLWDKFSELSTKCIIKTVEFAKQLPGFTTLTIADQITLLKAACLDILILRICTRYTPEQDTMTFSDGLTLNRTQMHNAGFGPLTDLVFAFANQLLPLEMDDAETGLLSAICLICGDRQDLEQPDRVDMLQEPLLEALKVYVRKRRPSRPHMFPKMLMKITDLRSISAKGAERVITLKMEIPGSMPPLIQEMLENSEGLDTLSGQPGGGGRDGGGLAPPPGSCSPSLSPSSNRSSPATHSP

Columns and labels:
[1] = biological target: T1, GST-tagged S100A3 (human) (UniProt P33764); assay: pull-down; GST-S100A3 (GST as negative control) conjugated to Glutathione-Sepharose beads, incubated with extracts of transfected COS-7 cells; western blot of the precipitates; only the target purified
T1 sequence: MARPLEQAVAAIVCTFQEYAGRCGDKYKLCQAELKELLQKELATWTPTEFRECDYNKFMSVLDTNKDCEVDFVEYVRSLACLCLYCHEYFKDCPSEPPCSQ

[2] = biological target: T2, S100A3 (over-expressed in COS-7) (human) (UniProt P33764); assay: far-Western, overlay or dot blot; S100A3 immunoprecipitated from extracts of transfected COS-7 cells with anti-S100A3 beads, resolved and blotted; probed with GST-tagged RARα recombinant proteins; developed with an anti-GST antibody; both purified
T2 sequence: T1 sequence

| binding [1] | binding [2] | Substance |
| --- | --- | --- |
|  | no binding | GST-DEFΔH12 (domain or fragment) |
| binds |  | RARα ΔC (from UniProt P10276) (receptor) |

Second part, the substance before the results:

| Substance | binding [1] | binding [2] |
| --- | --- | --- |
| RARα ΔF (domain or fragment) | binds |  |
| RARα ΔAB (domain or fragment) | binds |  |
| RARα ΔD (from UniProt P10276) (receptor) | binds |  |
